Results deposited as PubChem BioAssay AID1224828 (NIAID, 2016).
Aim: 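Find genes required for NF-kappaB p65 moving into the nucleus after LPS in mouse macrophages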 (primary screen). Cell system: mouse RAW264.7 G9 macrophage reporter cells (GFP-p65, Tnf promoter-mCherry). Reagent: siRNA pool against mouse genes, 100 nM. Timing: 2 days siRNA transfection, then 40 min LPS before fixation. Challenge: LPS (Salmonella minnesota R595) at 10 ng/ml. Measurement: 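Imaged p65 nuclear translocation ratio, normalised to the plate median, converted to robust z-scores and averaged across two replicates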. Reading the numbers: p65 translocation robust z-score: higher = more nuclear NF-kappaB p65 after LPS than the plate median; nuclear/cytoplasmic p65 ratio: higher = more nuclear NF-kappaB p65. Active means: 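Active if robust z is above 3.3 (negative regulators) or below -1.56, the Tlr4 control median (positive regulators); activity score 50 or more; control wells not called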. Calls: active = hit (p65 shift raised or lowered); inactive = no clear change.
The whole screen tested about 17,000 reagents; this is a random part of them. 762 of all reagents (4.5%) count as active. 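Active calls include both raised and lowered p65 entry, mostly lowered; wells with fewer than 50 cells lack a z-score.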 Raw values are not corrected between plates. Some reagents were tested in more than one well and are listed for each.

| Target gene | PubChem SID | p65 translocation robust z-score | nuclear/cytoplasmic p65 ratio, rep 1 | nuclear/cytoplasmic p65 ratio, rep 2 | low cell count flag | outcome |
| --- | --- | --- | --- | --- | --- | --- |
| Pecam1 | SID315468461 | -0.06 | 1.45 | 1.4 | enough cells to score | inactive |
| Tgfa | SID315469686 | 0.56 | 1.49 | 1.7 | enough cells to score | inactive |
| Tpte | SID315479139 | 1.79 | 1.79 | 1.67 | enough cells to score | inactive |
| Mrpl10 | SID315476634 | 0.07 | 1.81 | 1.65 | enough cells to score | inactive |
| Ift43 | SID315475305 | -0.41 | 1.34 | 1.22 | enough cells to score | inactive |
| Pard3b | SID315474631 | -1.3 | 1.45 | 1.38 | enough cells to score | inactive |
| Il17ra | SID315467439 | 0.08 | 1.47 | 1.4 | enough cells to score | inactive |
| Prps1l1 | SID315475127 | 0.19 | 1.64 | 1.47 | enough cells to score | inactive |
| Prps1l1 | SID315475127 | 0.4 | 1.32 | 1.6 | enough cells to score | inactive |
| Gm11545 | SID315478075 | -0.22 | 1.36 | 1.48 | enough cells to score | inactive |
| Rnf5 | SID315471178 | -0.85 | 1.26 | 1.16 | enough cells to score | inactive |
| Ptprr | SID315468821 | 0.49 | 1.81 | 1.44 | enough cells to score | inactive |
| Tk2 | SID315471831 | – | 1.74 | 1.41 | fewer than 50 cells per well; well left out of scoring | inactive |
| Fig4 | SID315476365 | 1.3 | 1.89 | 1.73 | enough cells to score | inactive |
| Tex2 | SID315469671 | 1.15 | 1.47 | 1.36 | enough cells to score | inactive |
| Klra6 | SID315467666 | -0.6 | 1.38 | 1.31 | enough cells to score | inactive |
| Mepe | SID315476038 | 0.42 | 1.74 | 1.65 | enough cells to score | inactive |
| Suox | SID315477679 | 0.11 | 1.5 | 1.64 | enough cells to score | inactive |
| Cdk19 | SID315475567 | -0.29 | 1.59 | 1.39 | enough cells to score | inactive |
| Cdk19 | SID315475567 | -0.02 | 1.44 | 1.42 | enough cells to score | inactive |
| Or8d2b | SID315480456 | 0.3 | 1.64 | 1.14 | enough cells to score | inactive |
| Cd200r1 | SID315471823 | 1.64 | 1.71 | 1.5 | enough cells to score | inactive |
| Zfp687 | SID315475554 | – | 1.22 | 1.5 | fewer than 50 cells per well; well left out of scoring | inactive |
| Supt4a | SID315469527 | -0.9 | 1.31 | 1.54 | enough cells to score | inactive |
| Pitpnm1 | SID315468530 | 0.6 | 1.52 | 1.23 | enough cells to score | inactive |
| Pmis2 | SID315475061 | – | 1.19 | 1.16 | fewer than 50 cells per well; well left out of scoring | inactive |
| Ewsr1 | SID315466587 | 2.19 | 1.85 | 1.57 | enough cells to score | inactive |
| Zfp282 | SID315476259 | – | 0 | 0 | fewer than 50 cells per well; well left out of scoring | inactive |
| Or2w2 | SID315480205 | – | 1.43 | 1.43 | fewer than 50 cells per well; well left out of scoring | inactive |
| Erich5 | SID315479436 | -0.08 | 1.59 | 1.81 | enough cells to score | inactive |
| Fam171a2 | SID315478095 | -0.69 | 1.46 | 1.75 | enough cells to score | inactive |
| Eif4h | SID315470027 | 0.26 | 1.5 | 1.69 | enough cells to score | inactive |
| Rbbp4 | SID315468908 | 0.2 | 1.55 | 1.54 | enough cells to score | inactive |
| Mcm4 | SID315467862 | -0.17 | 1.41 | 1.33 | enough cells to score | inactive |
| Fgf14 | SID315466664 | 1.24 | 1.59 | 1.54 | enough cells to score | inactive |
| Kat14 | SID315478649 | -0.53 | 1.47 | 1.73 | enough cells to score | inactive |
| Tas2r106 | SID315481854 | – | 1.05 | 1.11 | fewer than 50 cells per well; well left out of scoring | inactive |
| Doc2a | SID315466365 | 1.78 | 1.72 | 1.58 | enough cells to score | inactive |
| Slc36a2 | SID315479851 | – | 1.65 | 1.29 | fewer than 50 cells per well; well left out of scoring | inactive |
| Syt7 | SID315471252 | -1.96 | 1.11 | 0.901 | enough cells to score | active |
| Vcp | SID315480861 | – | 1.34 | 1.02 | fewer than 50 cells per well; well left out of scoring | inactive |
| Or8d2 | SID315481938 | -0.61 | 1.33 | 1.2 | enough cells to score | inactive |
| Rev3l | SID315468953 | 0.34 | 1.63 | 1.5 | enough cells to score | inactive |
| Dnmt1 | SID315466359 | 1 | 1.59 | 1.52 | enough cells to score | inactive |
| Anapc11 | SID315472252 | -1.02 | 1.48 | 1.45 | enough cells to score | inactive |
| Ripk1 | SID315468979 | -0.36 | 1.71 | 1.27 | enough cells to score | inactive |
| Med6 | SID315473902 | -1.36 | 1.2 | 1.22 | enough cells to score | inactive |
| Pglyrp2 | SID315471815 | -0.12 | 1.36 | 1.28 | enough cells to score | inactive |
| Sdr42e1 | SID315474821 | – | 2.63 | 1.41 | fewer than 50 cells per well; well left out of scoring | inactive |
| Abhd1 | SID315471802 | -0.53 | 1.5 | 1.63 | enough cells to score | inactive |
| Dgkb | SID315478128 | 0.43 | 1.84 | 1.37 | enough cells to score | inactive |
| Ankrd42 | SID315474792 | -0.11 | 1.25 | 1.55 | enough cells to score | inactive |
| Dsg1a | SID315466392 | -2.04 | 1.19 | 1.11 | enough cells to score | active |
| Pdia6 | SID315474351 | 0.39 | 1.56 | 1.56 | enough cells to score | inactive |
| Slc6a3 | SID315466265 | -0.3 | 1.43 | 1.52 | enough cells to score | inactive |
| Vmn1r71 | SID315479917 | 0.15 | 1.41 | 1.18 | enough cells to score | inactive |
| 9230106D20Rik (retired record) | SID315481445 | – | 1.4 | 1.63 | fewer than 50 cells per well; well left out of scoring | inactive |
| Cyp46a1 | SID315466245 | -0.33 | 1.53 | 1.72 | enough cells to score | inactive |
| Sidt2 | SID315477874 | 1 | 1.71 | 2.03 | enough cells to score | inactive |
